This is an account of results in paper PMC6555848.

Chains of the proteins cited; added tags and fusions are not shown.
UniProt P51692: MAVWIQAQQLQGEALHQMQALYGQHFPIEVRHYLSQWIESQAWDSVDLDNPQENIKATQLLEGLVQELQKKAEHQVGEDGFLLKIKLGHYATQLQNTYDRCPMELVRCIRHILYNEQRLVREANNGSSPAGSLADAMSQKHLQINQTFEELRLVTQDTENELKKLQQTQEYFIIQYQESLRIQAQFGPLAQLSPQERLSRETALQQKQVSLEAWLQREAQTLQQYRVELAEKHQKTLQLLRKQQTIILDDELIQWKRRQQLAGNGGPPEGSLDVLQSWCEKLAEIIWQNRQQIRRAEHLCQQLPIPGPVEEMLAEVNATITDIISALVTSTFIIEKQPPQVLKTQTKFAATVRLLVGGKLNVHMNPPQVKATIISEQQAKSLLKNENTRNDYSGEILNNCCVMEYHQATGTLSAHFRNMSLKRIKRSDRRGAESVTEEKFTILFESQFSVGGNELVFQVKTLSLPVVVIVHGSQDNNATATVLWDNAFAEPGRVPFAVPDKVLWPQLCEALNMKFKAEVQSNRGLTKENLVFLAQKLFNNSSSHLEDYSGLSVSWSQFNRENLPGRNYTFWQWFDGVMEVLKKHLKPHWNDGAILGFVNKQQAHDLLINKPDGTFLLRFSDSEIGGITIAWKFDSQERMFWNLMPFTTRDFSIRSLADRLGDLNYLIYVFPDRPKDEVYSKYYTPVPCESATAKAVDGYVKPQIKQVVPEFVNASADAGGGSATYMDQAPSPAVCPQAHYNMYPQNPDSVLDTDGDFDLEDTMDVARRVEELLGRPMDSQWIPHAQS

For this experiment, the target named is full-length human STAT5B (M1-S787) (human) (UniProt P51692). Kind of experiment: SEC; gel filtration of full-length STAT5B (Supplementary Fig. 5); conditions not shown; both purified. On the technique in general: SEC sorts molecules by how far they enter the pores of the column.

No constants are given. Whether binding was seen depends on the method and setting. Some entries that bind do so weakly or less than the wild type.

As for “full-length human STAT5B (M1-S787) (from UniProt P51692 1-787)”, the binding entry was “binds”.
